The source of these data is doi:10.1101/2023.12.05.570080.

Assay in all cases: pull-down LC-MS/MS
What all share (conditions): protein in an extract

Data set [1] addresses T1, SUVH2 (Arabidopsis thaliana (cell culture)) (UniProt O22781).
T1 sequence (looked up, limits assumed): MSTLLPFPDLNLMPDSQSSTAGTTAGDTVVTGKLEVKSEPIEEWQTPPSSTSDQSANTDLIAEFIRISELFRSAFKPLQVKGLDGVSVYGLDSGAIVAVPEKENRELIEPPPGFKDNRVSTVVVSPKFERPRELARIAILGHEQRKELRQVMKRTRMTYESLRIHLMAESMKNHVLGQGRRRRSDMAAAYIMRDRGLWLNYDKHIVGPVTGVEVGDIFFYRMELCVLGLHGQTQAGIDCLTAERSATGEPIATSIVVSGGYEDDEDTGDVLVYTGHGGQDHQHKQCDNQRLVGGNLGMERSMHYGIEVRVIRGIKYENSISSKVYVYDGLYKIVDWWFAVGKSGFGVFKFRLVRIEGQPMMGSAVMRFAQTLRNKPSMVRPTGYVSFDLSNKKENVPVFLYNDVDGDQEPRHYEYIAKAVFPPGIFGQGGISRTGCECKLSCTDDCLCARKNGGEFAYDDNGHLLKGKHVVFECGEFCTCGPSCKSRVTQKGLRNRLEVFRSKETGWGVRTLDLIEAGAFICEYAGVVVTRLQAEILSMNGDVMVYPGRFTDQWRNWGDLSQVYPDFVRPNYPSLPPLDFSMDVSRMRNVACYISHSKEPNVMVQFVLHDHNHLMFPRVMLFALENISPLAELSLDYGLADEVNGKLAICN

Data set [2] concerns the target T2, SUVH5 (Arabidopsis thaliana (cell culture)) (UniProt O82175).
T2 sequence (looked up, limits assumed): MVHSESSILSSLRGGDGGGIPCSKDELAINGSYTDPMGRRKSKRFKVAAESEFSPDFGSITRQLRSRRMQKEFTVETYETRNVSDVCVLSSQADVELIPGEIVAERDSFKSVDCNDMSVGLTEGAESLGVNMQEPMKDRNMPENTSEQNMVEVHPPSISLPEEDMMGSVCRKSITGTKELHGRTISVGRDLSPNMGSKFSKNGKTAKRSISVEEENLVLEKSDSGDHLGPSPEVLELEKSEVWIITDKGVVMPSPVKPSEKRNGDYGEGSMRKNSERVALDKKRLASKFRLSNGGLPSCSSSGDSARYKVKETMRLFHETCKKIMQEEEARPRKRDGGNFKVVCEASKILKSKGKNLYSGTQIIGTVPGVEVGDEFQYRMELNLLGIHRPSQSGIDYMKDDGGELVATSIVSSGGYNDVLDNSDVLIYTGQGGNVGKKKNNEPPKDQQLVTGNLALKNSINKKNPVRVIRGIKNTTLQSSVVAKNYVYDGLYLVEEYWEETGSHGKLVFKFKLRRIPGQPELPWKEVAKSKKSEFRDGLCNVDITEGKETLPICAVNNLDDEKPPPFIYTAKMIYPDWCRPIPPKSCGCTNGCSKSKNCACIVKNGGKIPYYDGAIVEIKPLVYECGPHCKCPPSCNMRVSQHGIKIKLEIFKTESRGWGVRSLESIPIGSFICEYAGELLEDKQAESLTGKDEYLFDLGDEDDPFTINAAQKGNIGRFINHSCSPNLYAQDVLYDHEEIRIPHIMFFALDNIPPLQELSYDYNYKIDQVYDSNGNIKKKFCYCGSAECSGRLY

The target in data set [3] is T3, VIM2 (Arabidopsis thaliana (cell culture)) (UniProt Q680I0).
T3 sequence (looked up, limits assumed): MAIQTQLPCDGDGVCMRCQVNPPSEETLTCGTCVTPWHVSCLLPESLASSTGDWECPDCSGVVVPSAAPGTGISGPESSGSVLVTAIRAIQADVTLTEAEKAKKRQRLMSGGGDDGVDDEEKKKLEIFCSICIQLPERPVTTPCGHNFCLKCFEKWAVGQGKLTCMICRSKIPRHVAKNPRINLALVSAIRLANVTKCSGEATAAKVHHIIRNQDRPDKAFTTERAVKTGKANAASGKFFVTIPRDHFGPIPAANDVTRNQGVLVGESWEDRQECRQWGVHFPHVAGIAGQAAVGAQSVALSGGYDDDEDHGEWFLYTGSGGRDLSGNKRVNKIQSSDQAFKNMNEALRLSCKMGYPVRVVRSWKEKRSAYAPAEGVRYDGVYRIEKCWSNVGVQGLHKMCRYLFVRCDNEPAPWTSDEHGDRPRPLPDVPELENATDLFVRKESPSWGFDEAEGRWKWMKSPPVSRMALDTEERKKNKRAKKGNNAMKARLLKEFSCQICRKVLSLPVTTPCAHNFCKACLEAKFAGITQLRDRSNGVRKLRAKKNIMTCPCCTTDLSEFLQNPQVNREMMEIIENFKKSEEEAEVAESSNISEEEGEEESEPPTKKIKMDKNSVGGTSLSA

In data set [4] the target is T4, VIM3 (Arabidopsis thaliana (cell culture)) (UniProt Q9FKA7).
T4 sequence (looked up, limits assumed): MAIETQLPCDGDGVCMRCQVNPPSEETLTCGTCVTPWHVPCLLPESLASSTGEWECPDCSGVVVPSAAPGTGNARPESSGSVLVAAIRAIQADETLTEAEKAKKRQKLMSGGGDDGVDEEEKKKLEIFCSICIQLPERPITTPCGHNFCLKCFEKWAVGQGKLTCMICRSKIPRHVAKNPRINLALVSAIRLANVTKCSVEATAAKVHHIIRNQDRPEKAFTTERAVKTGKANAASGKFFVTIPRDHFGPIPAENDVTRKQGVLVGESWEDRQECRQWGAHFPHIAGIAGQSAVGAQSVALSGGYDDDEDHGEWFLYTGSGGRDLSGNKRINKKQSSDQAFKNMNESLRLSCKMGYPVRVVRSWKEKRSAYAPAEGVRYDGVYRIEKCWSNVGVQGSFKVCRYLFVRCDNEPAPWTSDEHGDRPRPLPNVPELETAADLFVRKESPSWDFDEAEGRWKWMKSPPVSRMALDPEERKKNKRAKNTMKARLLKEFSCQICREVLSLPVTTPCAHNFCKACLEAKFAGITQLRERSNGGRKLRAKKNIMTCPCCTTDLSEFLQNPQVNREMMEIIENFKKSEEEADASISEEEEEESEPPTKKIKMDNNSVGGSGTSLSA

The mark [5] stands for this setting: mC at 9,14,19,24 of strand 1 and 8,13,18,23 of strand 2.

Construct, isoform or probe ends are uncertain for at least one entry. At least one result comes from cells or an extract, where the contact may be indirect. Weaker means in comparison with the reference protein, sequence or condition of that experiment. At least one verdict was read from the data and is not stated in words by the source. Protein sequences can lack the tags named with them.

On to “GATGATGTCGATTCGATTCGATTCGATATGATG (double strand) [unmethylated CG probe (CG3/CG4)]”, for which the binding result in data set [1], in data set [2], in data set [3] and in data set [4] was “binds more weakly” each time.
Turning to “GATGATGTCTGATCTGATCTGATCTGAATGATG (double strand) [unmethylated CHG probe (CHG3/CHG4)]”, the binding result in data set [1], in data set [2], in data set [3] and in data set [4] was “binds more weakly” throughout.
With “GATGATGTCTGATCTGATCTGATCTGAATGATG (double strand) [methylated CHG probe (CHG1/CHG2)]”, the binding result in data set [1] (setting [5]), in data set [2] (setting [5]), in data set [3] (setting [5]) and in data set [4] (setting [5]) was “binds” throughout.
